From article PMC7819943, “Rice protein-binding microarrays: a tool to detect cis-acting elements near promoter regions in rice”
The list shows a part of the results.

Each sequence was assayed against T1, OsSMF1 (Oryza sativa, UniProt Q6ZLB0 1-436) (assay: protein-binding microarray (RPBM); PBS, 2% BSA, 51.3 ng/ul salmon testes DNA, 50 uM zinc acetate, 200 nM TF, 25 C, 1 h; high values mean tight binding). Details: protein: recombinant; tags: N-terminal polyhistidine and DsRed monomer fusion (pET32a); chain copies: 2; label: CyDye5-dUTP incorporated in the synthesized complementary strand; 3' TTTTT single-stranded linker to array surface; dsDNA, one strand shown.
T1 sequence: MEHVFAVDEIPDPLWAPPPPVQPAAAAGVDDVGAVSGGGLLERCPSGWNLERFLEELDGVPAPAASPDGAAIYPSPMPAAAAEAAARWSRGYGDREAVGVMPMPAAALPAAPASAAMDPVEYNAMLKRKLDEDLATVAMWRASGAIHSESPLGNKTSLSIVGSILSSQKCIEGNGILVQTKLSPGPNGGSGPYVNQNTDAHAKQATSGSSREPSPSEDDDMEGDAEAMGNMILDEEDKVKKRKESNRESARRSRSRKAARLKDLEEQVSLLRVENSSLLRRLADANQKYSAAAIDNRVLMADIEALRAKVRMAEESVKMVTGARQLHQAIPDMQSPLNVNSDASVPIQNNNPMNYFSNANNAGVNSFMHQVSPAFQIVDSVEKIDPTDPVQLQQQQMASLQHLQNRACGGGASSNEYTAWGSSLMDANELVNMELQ
Procedure, shortened: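 Per-feature fluorescence intensity (arbitrary units), read on an Axon 4000B scanner, is the binding signal. Transcription factors carrying an N-terminal polyhistidine tag and DsRed fusion were expressed in E. coli BL21-CodonPlus and purified on Ni–NTA. A custom Agilent array, made double-stranded by primer extension with Cy5-dUTP and blocked with 2% BSA, was incubated with 200 nM protein in PBS, 2% BSA, salmon testes DNA and 50 µM zinc acetate at 25 °C for 1 h and then washed.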

Sequence | binding signal
TAGACCGACATATCTTAAGATTGACAAAGTCGCCATATCACGGAGTCACCTAGTGCAG | 3290 fluorescence intensity (a.u.)
GTTCTTGTCTCAGGGAAGATGAAACTGAATTCAACAATGACGGAGTCACCTAGTGCAG | 29400 fluorescence intensity (a.u.)
ATGCGCTTACTATCTTGCAGCATTCCATCGCTGGTCCTTTCGGAGTCACCTAGTGCAG | 4160 fluorescence intensity (a.u.)
AATGGTGTAATCATGGCGAATATGGTGTAGCATCAAAATCCGGAGTCACCTAGTGCAG | 3330 fluorescence intensity (a.u.)
TAGATCATATAGCAGAGAGAGAGAGAGAGAGAGAGAGAGACGGAGTCACCTAGTGCAG | 29600 fluorescence intensity (a.u.)
GACGAATCTTTTGAGGCTAATTACGCCATGATTTGATAATCGGAGTCACCTAGTGCAG | 3200 fluorescence intensity (a.u.)
ATATCAGTAAACAATATGTATGGGTCACAAAGAGTATGTGCGGAGTCACCTAGTGCAG | 3480 fluorescence intensity (a.u.)
TTATATTTTGGGACGGAGTGAGTATGTGTGAATGCGATGTCGGAGTCACCTAGTGCAG | 3210 fluorescence intensity (a.u.)
GTAATCTTGTTCATCATCCTCATCGAGGAGCTTGAGGTATCGGAGTCACCTAGTGCAG | 3770 fluorescence intensity (a.u.)
GGTGAGGATGACATGTGGGGCCCACGTGGGCCCCACCATTCGGAGTCACCTAGTGCAG | 5840 fluorescence intensity (a.u.)
TTGAATCGATTCCCTTGCCTCACCTCGCTGTTGTCGCCGACGGAGTCACCTAGTGCAG | 3460 fluorescence intensity (a.u.)
AATCAGAGAACGGATCTTATTGCTTGCCTCAAGTTGATTGCGGAGTCACCTAGTGCAG | 28800 fluorescence intensity (a.u.)
GCCATTCTCCGCTCGAAGGGGATCGATGTTGTGGATGGGTCGGAGTCACCTAGTGCAG | 3210 fluorescence intensity (a.u.)
TCTCCTTTTGATAACTGGTACAACTCACCAATCTCAATGCCGGAGTCACCTAGTGCAG | 3520 fluorescence intensity (a.u.)
GGCAAGTAACTCAACAAGGTGTTTATGTTCTATTGTAAAACGGAGTCACCTAGTGCAG | 12500 fluorescence intensity (a.u.)
CACTACTATGACTCGTGGGACCCCACAGACTCGCAGAGCGCGGAGTCACCTAGTGCAG | 5640 fluorescence intensity (a.u.)
GTGACCGCCACGCCCGCTCCGCCGTCGGCCGCACACACGCCGGAGTCACCTAGTGCAG | 6210 fluorescence intensity (a.u.)
ACTTTCTGATGTGAGGTATTGGTTGCCGCGTTGTCCTCTGCGGAGTCACCTAGTGCAG | 5740 fluorescence intensity (a.u.)
TGATCGGGATGACACGGCTGCTGCTGCTGTTGCTGCTTCCCGGAGTCACCTAGTGCAG | 5840 fluorescence intensity (a.u.)
CCTCCAAAATCCTAGGATGTGTCACATCCTTCCACAATCCCGGAGTCACCTAGTGCAG | 3860 fluorescence intensity (a.u.)
GGCGAACGCGTCGGCCCTGTCAGCGCCGCCTCGCGCGCCCCGGAGTCACCTAGTGCAG | 5160 fluorescence intensity (a.u.)

Sequence | binding signal
GAAGCAGCCGCGTCCGCAGTCGAAGCGCCCGCCTCAGCAGCGGAGTCACCTAGTGCAG | 3690 fluorescence intensity (a.u.)
TGTCAGGTGACTGTACTGGATGGATAATTTTCGGCCCAAACGGAGTCACCTAGTGCAG | 3960 fluorescence intensity (a.u.)
AACCGGGACTACAAAGGGTTTCTCCACCAGTGACGTGTAACGGAGTCACCTAGTGCAG | 17600 fluorescence intensity (a.u.)
AAATCAAATGAGGCCACCTAAACATTCCTTTCCTGAAAATCGGAGTCACCTAGTGCAG | 21600 fluorescence intensity (a.u.)
GTCTACGGCCCATCAGTTCGTAATGACCGGAATTTCGGCCCGGAGTCACCTAGTGCAG | 3360 fluorescence intensity (a.u.)
AGAATGTTCCAGTTTCTGAGAATGACTCATCTTCTGGAGACGGAGTCACCTAGTGCAG | 9620 fluorescence intensity (a.u.)
GCAACAATGCCGTCACTGACTCGCCGCTCTGCTGCACGGACGGAGTCACCTAGTGCAG | 3480 fluorescence intensity (a.u.)
ACGCACACGCTGCCAACTAACCGGTGGGCCCGTCAATCCACGGAGTCACCTAGTGCAG | 3690 fluorescence intensity (a.u.)
CCGACGTTACGAACGTTTTAGGTGGGCCCCACGGTTTCTCCGGAGTCACCTAGTGCAG | 17000 fluorescence intensity (a.u.)
GCGTAACTGCCGGTGGCTTTGTCGCAGGCGGCCACGCGCCCGGAGTCACCTAGTGCAG | 23500 fluorescence intensity (a.u.)
TGTTATTTAAGGAAGATAATCAAACTCACAATCAACGAACCGGAGTCACCTAGTGCAG | 27600 fluorescence intensity (a.u.)
GCGATGCTACGTCAAGCTCGTTGCCACTCTTGCGTGAGGGCGGAGTCACCTAGTGCAG | 4310 fluorescence intensity (a.u.)
GGAAGCGCACGTCGCCGCGTGGCGCGTGGCAAGCGGCGTCCGGAGTCACCTAGTGCAG | 6750 fluorescence intensity (a.u.)
TTCCTTTTCTTGTTTATTGTGTTTGCATATCTGGACAAGTCGGAGTCACCTAGTGCAG | 3240 fluorescence intensity (a.u.)
AGAGAGGGTGTTGTGAATTGGGAATTTCGGGATTATTGCTCGGAGTCACCTAGTGCAG | 3140 fluorescence intensity (a.u.)
CGACGCCTACCTCCTCCACCTCCTCATCCCGGCCTCCTCCCGGAGTCACCTAGTGCAG | 5450 fluorescence intensity (a.u.)
TTTGTTGAATTCGGTCAAAGTTTATTCAAATCCAGTCAAACGGAGTCACCTAGTGCAG | 3320 fluorescence intensity (a.u.)
GTATGCAATTAATTAAGTACGTGGAAGCTTGTTTTCTGTACGGAGTCACCTAGTGCAG | 4630 fluorescence intensity (a.u.)
GTCACAACGAATAATCAATGGCCTCTCCTGCATCACCAAGCGGAGTCACCTAGTGCAG | 3660 fluorescence intensity (a.u.)
AATGCCTCAAATGCACAGTCTTCCTTCATATTATGTGGCACGGAGTCACCTAGTGCAG | 3960 fluorescence intensity (a.u.)
CACTCCCTCATACACGATGTGTCATAGGTAAACAACAAATCGGAGTCACCTAGTGCAG | 4200 fluorescence intensity (a.u.)

No new results follow: an excerpt of the list.
Sequence | binding signal
GTATGCAATTAATTAAGTACGTGGAAGCTTGTTTTCTGTACGGAGTCACCTAGTGCAG | 4630 fluorescence intensity (a.u.)
GTCACAACGAATAATCAATGGCCTCTCCTGCATCACCAAGCGGAGTCACCTAGTGCAG | 3660 fluorescence intensity (a.u.)
